Measured values taken from article PMC9164164.

Test system: GST-GhTCP4-like (Gossypium hirsutum)
Assay: EMSA
Settings: shift weakened by increasing unlabeled identical probe; Not given; Beyotime Chemiluminescent EMSA Kit, as in Jiao et al. 2020; recombinant protein; protein details: GST (pGEX6p-1); label: 5' biotin

| Sequence | binding result |
| --- | --- |
| AGATAACTACATATCGGTGCCACAGATTACTCAGACAG (double strand) [GhICS1 promoter EMSA probe F1/R1] | binds |
| CAACTAAAGAAGTATGGTGCCACTGATTACTCAAATAA (double strand) [GhICS1 promoter EMSA probe F2/R2] | binds |

The exact form of at least one protein or probe is not confirmed.
